From patent publication US20220267272A1, “PYRIDINIUM SALT AND PEST CONTROL AGENT” (Nippon Soda Co., Ltd., priority 2019, published 2022)
Some entries share one result that the patent states for a list of compounds.

Key:
Aphis gossypii = assay: Efficacy test against Aphis gossypii (spray on cucumber); type: in vivo; conditions: 125 ppm by mass sprayed on cucumber; first-instar larvae; 25° C., humidity 60%; after five days
Nilaparvata lugens = assay: Efficacy test against Nilaparvata lugens (rice seedling immersion); type: in vivo; conditions: 125 ppm by mass; rice seedling immersed 30 seconds; second-instar larvae; 25° C., humidity 65%; after ten days

SMILES	mortality (Aphis gossypii) [%]	mortality (Nilaparvata lugens) [%]
O=C([N-][n+]1ccccc1)c1ccc(C=NOCC(F)(F)C(F)(F)C(F)(F)C(F)(F)F)c(F)c1 [Compound C1-63]	≥ 80	≥ 80
O=C([N-][n+]1ccccc1)c1ccc(C=NOCC(F)(F)C(F)(F)C(F)(F)F)c(F)c1 [Compound C1-64]		≥ 80
O=C([N-][n+]1ccccc1)c1ccc(C=NOCC(F)(F)C(F)(F)F)c(F)c1 [Compound C1-65]		≥ 80
O=C([N-][n+]1ccccc1)c1ccc(OC(F)(F)C(F)OC(F)(F)C(F)(F)C(F)(F)OC(F)(F)F)c(F)c1 (centres unmarked) [Compound C1-74]	≥ 80	
